For at least one entry, the source does not settle the construct or the ends of the probe. No signal at the amounts used counts as a negative. Protein sequences can lack the tags named with them.
Biological target: T1, R.LlaAI (Lactococcus lactis subsp. cremoris W9) (UniProt P50177)
T1 sequence: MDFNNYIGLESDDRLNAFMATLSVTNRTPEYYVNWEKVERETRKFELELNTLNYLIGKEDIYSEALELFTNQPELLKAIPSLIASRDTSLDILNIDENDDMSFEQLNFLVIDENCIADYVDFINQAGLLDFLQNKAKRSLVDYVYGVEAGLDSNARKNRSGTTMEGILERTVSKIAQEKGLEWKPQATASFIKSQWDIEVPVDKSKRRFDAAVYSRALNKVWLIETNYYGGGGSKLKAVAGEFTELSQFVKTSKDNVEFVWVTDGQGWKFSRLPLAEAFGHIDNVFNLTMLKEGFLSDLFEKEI
Assay: enzyme reaction in vitro
Conditions: purified native protein, only the motif is given, variant of GATC recognition site

Sequence: GATC (double strand)
- activity on this sequence (N6-methyladenine at A (dam)): not active
- activity on this sequence (methylated by LlaAI methylases): not active
